Measurements reported in patent US10786429B2, “Preservative removal from eye drops” (University of Florida Research Foundation, Inc., priority 2016, dated 2020).

Assays:
Assay type in all cases: physicochemical
[1] = BAK/drug removal by macroporous pHEMA gel plug packed in syringe, 10 consecutive passes; settings: for drug adsorption percentage: first pass through the 10th pass; for percentage of BAK or drug absorbed by plug: 2.5 mL drug/BAK in PBS, 5 mm gel
[2] = BAK/drug removal by crushed macroporous pHEMA particles in syringe, passes separated by 24 hours
[3] = Timolol/BAK separation by pHEMA particles from UV-initiated polymerization (EGDMA) in prototype bottle
[4] = Timolol/BAK separation by pHEMA particles with SR454HP cross-linker in prototype bottle
[5] = Timolol/BAK separation by pHEMA particles with SR9035 cross-linker in prototype bottle

Molecule: CCN[C@H]1C[C@H](C)S(=O)(=O)c2sc(S(N)(=O)=O)cc21 [Dorzolamide, dorzolamide hydrochloride]
- drug adsorption percentage [1]: about 5%

Molecule: CC(C)OC(=O)CCC/C=C\C[C@@H]1[C@@H](CC[C@@H](O)CCc2ccccc2)[C@H](O)C[C@@H]1O [Latanoprost, latanoprost]
- drug absorbed (in words) ([2]; particles pre-equilibrated with the drug solution): only a very small portion
- percentage of BAK or drug absorbed by plug ([1]; 10th pass): 30%
- percentage of BAK or drug absorbed by plug ([1]; first run): 90%

Molecule: CC(C)(C)NC[C@H](O)COc1nsnc1N1CCOCC1 [Timolol, timolol maleate]
- percentage removed ([3]; each of the 5 runs): about 1.5%
- percentage removed ([4]; 1st run): About 18%
- amount removed (in words) ([4]; 10th run): negligible
- percentage removed ([5]; 1st run): About 25%
- amount removed (in words) ([5]; after the 5th run): negligible
- drug adsorption percentage [1]: about 5%

Molecule: Benzalkonium Chloride [BAK]
- percentage removed ([3]; 5th run): 30%
- percentage removed ([3]; first pass, 1.5 mL, 8 mm plug): Roughly 50%
- percentage of BAK removed ([2]; all 10 passes, 24 hours between passes, regardless of drug): ~100%
- percentage removed ([4]; after the 5th run): about 90%
- percentage removed ([4]; first 3-5th runs, 1.5 mL daily, 1.8 cm plug): ~100%
- percentage removed ([5]; 10th run): about 95%
- percentage removed ([5]; first 6th runs, 1.5 mL daily, 1.8 cm plug): ~100%
- percentage of BAK or drug absorbed by plug ([1]; 10th pass): 70-80%
- percentage of BAK or drug absorbed by plug ([1]; first run): 100%

Structures can show the parent of a compound that is named as a salt.
